Reference: patent US20150276714A1, “METHOD OF IDENTIFYING OR EVALUATING BENEFICIAL ACTIVES AND COMPOSITIONS CONTAINING THE SAME” (The Procter & Gamble Company, priority 2012, published 2015)
Where “and” joins values, the source holds several entries; their conditions need not be identical. Identical values can stand only once. This continues a long series; more values of the same kind are listed elsewhere.

Tested on: human dermal fibroblasts (BJ cell line)
Test: Extracellular acidification rate (glycolysis), XF Extracellular Flux Analyzer
Format: cell-based
Conditions: plate 2, 1.0 mM niacinamide alone
From the text: This method enables the non-lethal, simultaneous detection of metabolic indicators associated with the oxidative phosphorylation and glycolysis metabolic pathways in a controlled environment. The method also enables the collection of kinetic data. When assessing the metabolic response to a stressor or test agent, it is important to assess both metabolic pathways simultaneously to understand how the two metabolic pathways interact with the stressor or test agent and/or to one another. Additionally, it is important to monitor the metabolic pathways in real time (i.e., repeating periodic measurements) to observe trends and/or transient responses that may be missed when using methods that provide only static data. Thus, destructive tests are not suitable for use herein since they typically only allow for a single measurement. With regard to the fibroblasts discussed above in FIGS. 5A, 5B, 5C, 5D, 5E, 6, 7A, 7B, 7C, 7D, 7E and 8, frozen human dermal fibroblasts were obtained from the BJ cell line commercially available from ATCC, Bethesda, Md. The fibroblasts were grown to 70-80% confluence in a culture medium of Eagle's Minimum Essential Medium (“EMEM”) supplemented with 10% fetal bovine serum (“FBS”) and gentamicin/amphotericin B ×500 solution (EMEM and FBS are available from ATCC, and gentamicin/amphotericin B ×500 solution is available from Invitrogen). The fibroblasts were plated at 1×10^5 cells per well in Gelatin-coated plates 24 hours prior to testing. Each well included 100 μL of the fibroblast medium described above. A test medium was made from Dulbecco's Modified Eagle Medium (available from Seahorse Bioscience), 25 mM glucose and 1 mM pyruvate. The test medium was warmed to 37° C. and the pH adjusted to 7.4. The cells were grown and plated at 37° C. and 5% CO2 air. The fibroblast medium in the wells was replaced by the test medium 1 hour prior to taking measurements. Oxygen consumption rate and extracellular acidification rate may be detected using an XF Extracellular Flux Analyzer or equivalent. The device should be capable of non-lethally and simultaneously detecting metabolic indicators of the oxphos and glycolysis pathways in a controlled environment, as well as providing kinetic data. The cells may be provided in a multi-well plate suitable for use with the instrument (e.g., 24-well plate or 96-well plate) and washed prior to testing. The cells may be washed by any suitable means known in the art (e.g., using a Seahorse Biosciences XF prep station). When washing the cells, it may be desirable to remove the medium from the wells and wash the cells three times with a suitable amount of test medium (e.g., 180 μL in a 96-well plate or 600 μL in a 24-well plate). After washing the cells, a suitable amount of test medium is placed in each well, and the cells are equilibrated at 37° C. in a CO2-free incubator for 1-1.5 hours prior to placing the plate in the instrument for testing. Following the equilibration period, load the plate containing the cells into the instrument and equilibrate according to manufacturer's instructions. The entire test is conducted at 37° C. In some embodiments, it may be desirable to set the instrument to provide a three minute mix cycle, a two minute wait cycle, and a 3 minute measurement cycle for keratinocytes and a two minute mix cycle, two minute wait cycle and 3 minute measurement cycle for fibroblasts. The cycles should be repeated for at least 88 minutes. It is to be appreciated that the cycles and times may be modified according to cell type and experiment design, as desired. The following example illustrates how the method herein can be used to identify skin care actives. […] The test agent is niacinamide (also known as vitamin B3), which is commercially available from Sigma. The test agent was prepared at 10× the final working concentration in the fibroblast test medium described above to provide a test agent solution. […]

NC(=O)c1cccnc1 [niacinamide]
ECAR (measurement 4 (added after measurement 3)): 28 mpH/min and 44 mpH/min and 34 mpH/min and 41 mpH/min and 25 mpH/min
ECAR (measurement 5): 38 mpH/min and 52 mpH/min and 44 mpH/min and 49 mpH/min and 39 mpH/min
ECAR (measurement 6): 38 mpH/min and 52 mpH/min and 44 mpH/min and 50 mpH/min and 39 mpH/min
ECAR (measurement 7): 38 mpH/min and 52 mpH/min and 43 mpH/min and 49 mpH/min
ECAR (measurement 8): 37 mpH/min and 52 mpH/min and 42 mpH/min and 49 mpH/min and 38 mpH/min
ECAR (measurement 9): 37 mpH/min and 52 mpH/min and 42 mpH/min and 48 mpH/min
ECAR (measurement 10): 37 mpH/min and 52 mpH/min and 41 mpH/min and 48 mpH/min and 36 mpH/min
ECAR (measurement 11): 36 mpH/min and 51 mpH/min and 40 mpH/min and 48 mpH/min and 35 mpH/min
